Measured values from the supplement of paper PMC10849652.
Some of the results follow.

Amino acid sequences for entries named in this document (tags omitted). A change or cut given only in a name is not applied to a line headed by its entry.
UniProt P03915, whole entry, looked up: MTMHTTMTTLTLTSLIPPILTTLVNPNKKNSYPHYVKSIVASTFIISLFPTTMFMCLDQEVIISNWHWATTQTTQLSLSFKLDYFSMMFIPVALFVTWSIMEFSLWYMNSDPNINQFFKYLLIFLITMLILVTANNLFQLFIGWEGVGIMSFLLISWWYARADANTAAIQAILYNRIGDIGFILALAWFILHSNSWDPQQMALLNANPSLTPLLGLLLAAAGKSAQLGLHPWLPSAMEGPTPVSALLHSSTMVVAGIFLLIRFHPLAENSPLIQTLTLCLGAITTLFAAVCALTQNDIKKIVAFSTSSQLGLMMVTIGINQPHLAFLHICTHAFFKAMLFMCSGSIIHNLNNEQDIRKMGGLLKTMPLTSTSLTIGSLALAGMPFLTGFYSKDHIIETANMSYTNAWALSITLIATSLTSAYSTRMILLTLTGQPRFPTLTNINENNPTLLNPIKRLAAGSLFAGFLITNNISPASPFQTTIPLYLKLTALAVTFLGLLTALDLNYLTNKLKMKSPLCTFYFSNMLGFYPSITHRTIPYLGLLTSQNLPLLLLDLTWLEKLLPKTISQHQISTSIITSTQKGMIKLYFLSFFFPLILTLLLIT
UniProt Q15800: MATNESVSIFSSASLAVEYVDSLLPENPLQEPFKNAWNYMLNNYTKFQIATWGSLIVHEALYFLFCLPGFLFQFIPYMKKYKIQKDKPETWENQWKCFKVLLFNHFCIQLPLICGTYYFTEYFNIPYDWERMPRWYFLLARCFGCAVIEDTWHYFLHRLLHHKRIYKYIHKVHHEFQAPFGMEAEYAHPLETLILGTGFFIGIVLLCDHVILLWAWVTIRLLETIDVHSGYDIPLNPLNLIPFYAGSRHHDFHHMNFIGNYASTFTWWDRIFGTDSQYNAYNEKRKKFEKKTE
UniProt O94776: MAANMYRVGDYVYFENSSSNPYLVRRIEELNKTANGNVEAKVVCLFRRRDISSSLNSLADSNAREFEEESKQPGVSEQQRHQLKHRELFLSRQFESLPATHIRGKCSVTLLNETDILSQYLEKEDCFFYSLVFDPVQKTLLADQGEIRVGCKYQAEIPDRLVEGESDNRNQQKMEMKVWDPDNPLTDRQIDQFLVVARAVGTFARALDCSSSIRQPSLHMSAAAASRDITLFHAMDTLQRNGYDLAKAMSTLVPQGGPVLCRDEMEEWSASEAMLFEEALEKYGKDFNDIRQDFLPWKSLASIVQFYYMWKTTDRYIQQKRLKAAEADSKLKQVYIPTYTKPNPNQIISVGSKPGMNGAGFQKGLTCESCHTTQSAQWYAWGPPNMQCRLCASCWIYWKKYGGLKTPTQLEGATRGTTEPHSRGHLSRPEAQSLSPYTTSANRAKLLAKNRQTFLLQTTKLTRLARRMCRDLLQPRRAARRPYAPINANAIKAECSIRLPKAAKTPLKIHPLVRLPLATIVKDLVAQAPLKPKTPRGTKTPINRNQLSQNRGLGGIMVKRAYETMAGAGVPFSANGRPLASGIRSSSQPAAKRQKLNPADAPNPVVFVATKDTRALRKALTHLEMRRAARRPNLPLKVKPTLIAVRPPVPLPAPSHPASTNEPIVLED
UniProt Q9UBK8: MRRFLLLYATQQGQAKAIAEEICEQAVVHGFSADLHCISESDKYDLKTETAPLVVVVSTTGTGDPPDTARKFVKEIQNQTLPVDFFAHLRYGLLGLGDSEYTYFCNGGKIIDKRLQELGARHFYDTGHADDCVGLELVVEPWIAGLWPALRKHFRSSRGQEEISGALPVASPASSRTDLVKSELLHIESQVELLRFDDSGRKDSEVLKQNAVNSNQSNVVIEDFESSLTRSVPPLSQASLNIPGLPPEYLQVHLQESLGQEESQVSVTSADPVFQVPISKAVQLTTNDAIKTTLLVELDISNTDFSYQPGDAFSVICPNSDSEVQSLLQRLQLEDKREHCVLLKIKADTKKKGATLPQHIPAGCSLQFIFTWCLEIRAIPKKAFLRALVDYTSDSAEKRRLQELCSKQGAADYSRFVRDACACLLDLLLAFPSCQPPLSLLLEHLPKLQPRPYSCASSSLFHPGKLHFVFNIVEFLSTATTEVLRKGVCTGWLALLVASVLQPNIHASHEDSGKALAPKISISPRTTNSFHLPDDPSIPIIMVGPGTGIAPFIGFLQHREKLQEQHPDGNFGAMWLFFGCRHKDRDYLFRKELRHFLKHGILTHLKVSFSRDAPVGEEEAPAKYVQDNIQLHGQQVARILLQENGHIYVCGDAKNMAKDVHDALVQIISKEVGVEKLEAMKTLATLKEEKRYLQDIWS
UniProt P35579, whole entry, looked up: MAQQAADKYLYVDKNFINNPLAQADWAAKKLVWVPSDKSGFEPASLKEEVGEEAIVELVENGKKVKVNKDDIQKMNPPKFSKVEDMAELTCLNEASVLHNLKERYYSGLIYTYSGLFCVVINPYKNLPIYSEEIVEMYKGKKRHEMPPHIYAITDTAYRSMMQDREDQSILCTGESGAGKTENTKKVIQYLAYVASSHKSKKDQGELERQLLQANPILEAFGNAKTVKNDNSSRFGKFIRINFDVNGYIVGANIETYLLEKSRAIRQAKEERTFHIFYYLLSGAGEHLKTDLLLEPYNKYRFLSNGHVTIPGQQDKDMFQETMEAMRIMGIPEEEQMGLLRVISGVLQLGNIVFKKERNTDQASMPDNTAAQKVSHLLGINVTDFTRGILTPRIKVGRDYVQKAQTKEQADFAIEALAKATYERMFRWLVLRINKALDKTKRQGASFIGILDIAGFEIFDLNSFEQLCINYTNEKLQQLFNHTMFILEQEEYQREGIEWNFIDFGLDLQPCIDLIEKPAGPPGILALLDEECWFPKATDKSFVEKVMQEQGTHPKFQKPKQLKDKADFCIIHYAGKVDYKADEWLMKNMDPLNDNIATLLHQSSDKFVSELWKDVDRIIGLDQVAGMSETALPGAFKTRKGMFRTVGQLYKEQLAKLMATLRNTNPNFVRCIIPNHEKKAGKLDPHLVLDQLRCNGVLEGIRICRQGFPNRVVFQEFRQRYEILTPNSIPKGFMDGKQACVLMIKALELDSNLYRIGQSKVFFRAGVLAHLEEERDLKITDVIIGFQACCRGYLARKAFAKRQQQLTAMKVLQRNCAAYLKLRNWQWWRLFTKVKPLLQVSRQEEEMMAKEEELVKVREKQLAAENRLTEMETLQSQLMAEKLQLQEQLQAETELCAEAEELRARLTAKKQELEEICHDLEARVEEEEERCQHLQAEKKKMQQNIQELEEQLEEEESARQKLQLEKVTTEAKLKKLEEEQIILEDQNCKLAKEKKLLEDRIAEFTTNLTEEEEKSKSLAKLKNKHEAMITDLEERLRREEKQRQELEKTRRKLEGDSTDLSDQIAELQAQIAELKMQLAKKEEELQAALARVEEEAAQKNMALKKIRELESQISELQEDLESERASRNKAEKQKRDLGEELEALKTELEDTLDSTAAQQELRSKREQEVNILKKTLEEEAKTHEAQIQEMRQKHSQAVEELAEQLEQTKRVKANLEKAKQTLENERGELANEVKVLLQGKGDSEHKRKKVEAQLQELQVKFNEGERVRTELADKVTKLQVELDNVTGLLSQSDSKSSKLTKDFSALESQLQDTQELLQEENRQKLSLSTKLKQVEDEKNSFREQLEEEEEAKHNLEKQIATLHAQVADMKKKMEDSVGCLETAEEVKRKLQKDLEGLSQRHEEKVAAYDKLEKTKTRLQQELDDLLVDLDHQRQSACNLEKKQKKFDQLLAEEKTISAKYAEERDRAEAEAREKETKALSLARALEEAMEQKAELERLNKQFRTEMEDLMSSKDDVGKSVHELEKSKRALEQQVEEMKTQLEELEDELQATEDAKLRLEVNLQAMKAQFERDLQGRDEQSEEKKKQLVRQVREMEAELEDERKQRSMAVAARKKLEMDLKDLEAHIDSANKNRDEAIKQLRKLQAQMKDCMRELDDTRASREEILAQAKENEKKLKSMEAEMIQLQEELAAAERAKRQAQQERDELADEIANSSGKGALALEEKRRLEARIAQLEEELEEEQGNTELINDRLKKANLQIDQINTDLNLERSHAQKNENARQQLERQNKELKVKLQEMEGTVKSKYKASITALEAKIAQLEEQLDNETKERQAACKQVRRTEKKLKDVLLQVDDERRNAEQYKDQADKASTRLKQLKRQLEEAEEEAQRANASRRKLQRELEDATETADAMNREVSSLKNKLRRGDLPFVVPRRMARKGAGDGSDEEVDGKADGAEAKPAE
UniProt Q96DR8: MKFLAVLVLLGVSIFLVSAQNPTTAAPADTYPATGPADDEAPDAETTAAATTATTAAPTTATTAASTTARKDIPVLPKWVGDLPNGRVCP
UniProt Q9BUK6: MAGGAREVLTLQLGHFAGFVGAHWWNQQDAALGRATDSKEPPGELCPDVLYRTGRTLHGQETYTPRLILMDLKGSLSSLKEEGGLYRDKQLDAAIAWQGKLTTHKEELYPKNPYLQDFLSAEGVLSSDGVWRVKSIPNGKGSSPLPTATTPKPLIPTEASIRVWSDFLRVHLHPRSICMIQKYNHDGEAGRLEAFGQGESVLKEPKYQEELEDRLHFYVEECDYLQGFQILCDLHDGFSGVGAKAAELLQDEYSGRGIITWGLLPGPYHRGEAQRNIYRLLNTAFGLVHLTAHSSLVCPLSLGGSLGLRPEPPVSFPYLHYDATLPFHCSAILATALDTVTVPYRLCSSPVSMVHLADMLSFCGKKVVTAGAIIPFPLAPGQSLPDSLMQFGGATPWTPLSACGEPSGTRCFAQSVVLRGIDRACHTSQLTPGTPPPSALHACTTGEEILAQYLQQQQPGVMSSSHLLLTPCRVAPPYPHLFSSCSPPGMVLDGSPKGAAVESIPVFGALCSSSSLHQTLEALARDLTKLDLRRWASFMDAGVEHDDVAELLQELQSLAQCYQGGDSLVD
UniProt Q9H6N6: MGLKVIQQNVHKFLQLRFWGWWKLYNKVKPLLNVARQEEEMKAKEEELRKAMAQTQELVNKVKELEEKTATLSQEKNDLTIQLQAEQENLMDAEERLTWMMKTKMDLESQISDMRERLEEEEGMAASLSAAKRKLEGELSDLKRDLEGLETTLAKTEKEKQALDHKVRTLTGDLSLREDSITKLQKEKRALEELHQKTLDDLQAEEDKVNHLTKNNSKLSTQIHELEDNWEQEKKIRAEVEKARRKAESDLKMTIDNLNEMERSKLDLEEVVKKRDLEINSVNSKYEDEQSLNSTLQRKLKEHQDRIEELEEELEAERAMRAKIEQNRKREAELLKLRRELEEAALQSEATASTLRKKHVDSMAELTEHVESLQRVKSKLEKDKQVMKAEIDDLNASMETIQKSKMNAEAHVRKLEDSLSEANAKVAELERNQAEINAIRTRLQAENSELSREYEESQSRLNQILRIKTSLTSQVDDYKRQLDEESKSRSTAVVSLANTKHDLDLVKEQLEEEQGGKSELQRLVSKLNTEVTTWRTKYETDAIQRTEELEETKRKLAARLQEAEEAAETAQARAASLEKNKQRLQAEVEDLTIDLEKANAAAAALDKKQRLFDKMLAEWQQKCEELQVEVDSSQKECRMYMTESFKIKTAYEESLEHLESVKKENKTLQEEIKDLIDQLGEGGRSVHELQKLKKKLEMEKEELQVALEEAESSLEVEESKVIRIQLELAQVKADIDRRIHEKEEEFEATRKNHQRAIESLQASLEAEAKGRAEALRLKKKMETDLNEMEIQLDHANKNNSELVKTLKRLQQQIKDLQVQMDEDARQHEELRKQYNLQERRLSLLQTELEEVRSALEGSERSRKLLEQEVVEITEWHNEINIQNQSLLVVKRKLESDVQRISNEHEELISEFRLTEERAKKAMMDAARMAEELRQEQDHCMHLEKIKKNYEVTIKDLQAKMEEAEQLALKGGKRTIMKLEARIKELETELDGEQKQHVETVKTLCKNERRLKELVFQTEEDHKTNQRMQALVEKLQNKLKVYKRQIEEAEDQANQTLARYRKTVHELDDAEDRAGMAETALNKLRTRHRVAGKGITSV
UniProt Q13496: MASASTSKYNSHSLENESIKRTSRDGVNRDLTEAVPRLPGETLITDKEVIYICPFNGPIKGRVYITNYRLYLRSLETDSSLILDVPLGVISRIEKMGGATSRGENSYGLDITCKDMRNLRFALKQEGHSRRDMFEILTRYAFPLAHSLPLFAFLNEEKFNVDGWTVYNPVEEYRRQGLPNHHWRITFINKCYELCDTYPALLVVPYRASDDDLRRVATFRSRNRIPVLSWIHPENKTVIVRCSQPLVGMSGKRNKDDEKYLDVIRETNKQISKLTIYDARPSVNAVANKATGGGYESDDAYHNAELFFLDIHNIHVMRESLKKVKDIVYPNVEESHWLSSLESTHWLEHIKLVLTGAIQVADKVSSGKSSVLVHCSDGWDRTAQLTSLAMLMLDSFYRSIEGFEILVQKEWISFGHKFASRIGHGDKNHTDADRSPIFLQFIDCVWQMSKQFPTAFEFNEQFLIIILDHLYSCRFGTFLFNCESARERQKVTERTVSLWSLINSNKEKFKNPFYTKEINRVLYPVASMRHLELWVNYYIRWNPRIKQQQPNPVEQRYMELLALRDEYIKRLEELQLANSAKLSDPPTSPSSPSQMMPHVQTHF

Key:
Experiment in all cases: log2 fold change, soluble protein after heating vs DMSO (PISA); higher = thermal stabilisation; K562 cells, 10 uM, 30 min; active = over 0.2 and 3.5 SD of the protein, either way, in both replicates (recomputed)
[1] = compound: C1=CC=C(C=C1)[C@H](COC2=CC3=C(C=C2)NC(=O)N3)NC(=O)C4=CC=CN(C4=O)CC5=CC(=C(C=C5)F)F
Outline: (§1)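 For each measurement, 10 μM compound was applied for 30 min to K562 cells at 2×10^6 cells/mL. Aliquots were heated for 3 min across 48°C-58°C, pooled, and extracted in PBS with 0.5% NP-40 at 4°C; the supernatant after 21,000xg for 90 min was soluble protein. This was quantified by TMTpro 16plex LC-MS/MS with channel sums equalised, and thermal stability was reported relative to control samples from duplicates, on a log2 fold-change scale.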

[2] = compound: CC1=C(SC2=C1C(=N[C@H](C3=NN=C(N32)C)CC(=O)N)C4=CC=C(C=C4)Cl)C
Outline: as §1

[3] = compound: CC1=C2C(=CC=C1)N=C(N(C2=O)C3=CC=CC=C3C)CN4C=NC5=C(N=CN=C54)N
Outline: as §1

[4] = compound: Cc1sc2c(c1C)C(c1ccc(Cl)cc1)=N[C@@H](CC(=O)OC(C)(C)C)c1nnc(C)n1-2
Outline: as §1

[5] = compound: c1ccc([C@@H]2C[C@H]2NC2CCNCC2)cc1
Outline: as §1

Measured: log2 fold change

MRPS14 (UniProt O60783)
inactive: [1] -0.011 | [2] -0.127 | [3] 0.012 | [4] 0.131 | [5] 0.092

MT-ND5 (UniProt P03915)
inactive: [1] -0.005 | [2] -0.075 | [3] -0.072 | [4] -0.136 | [5] 0.066

MVK (UniProt Q03426)
inactive: [1] -0.015 | [2] 0.014 | [3] 0.047 | [4] -0.006 | [5] 0.014

MRPS9 (UniProt P82933)
inactive: [1] -0.001 | [2] 0.008 | [3] -0.025 | [4] 0.034 | [5] 0.025

MTFR2 (UniProt Q6P444)
inactive: [1] 0.006 | [2] -0.03 | [3] 0.015 | [4] -0.126 | [5] 0.064

MRPS10 (UniProt P82664)
inactive: [1] -0.019 | [2] -0.102 | [3] 0.065 | [4] 0.132 | [5] 0.025

MTMR3 (UniProt Q13615)
inactive: [1] -0.093 | [2] 0.102 | [3] 0.078 | [4] -0.031 | [5] 0.048

MRPL58 (UniProt Q14197)
inactive: [1] 0.028 | [2] -0.148 | [3] -0.046 | [4] 0.081 | [5] -0.047

MSMO1 (UniProt Q15800)
inactive: [1] -0.009 | [2] -0.004 | [3] 0.021 | [4] -0.008 | [5] 0.02

Copied from the listing (2 entries):
MVK (UniProt Q03426)
inactive: [1] -0.015 | [2] 0.014 | [3] 0.047 | [4] -0.006 | [5] 0.014

MRPS9 (UniProt P82933)
inactive: [1] -0.001 | [2] 0.008 | [3] -0.025 | [4] 0.034 | [5] 0.025

Carrying on:

MRPS18C (UniProt Q9Y3D5)
inactive: [1] 0.036 | [2] 0.002 | [3] 0.066 | [4] 0.083 | [5] 0.017

MSRB2 (UniProt Q9Y3D2)
inactive: [1] 0.198 | [2] 0.025 | [3] 0.049 | [4] 0.143 | [5] -0.019

MRPS28 (UniProt Q9Y2Q9)
inactive: [1] -0.012 | [2] -0.121 | [3] -0.209 | [4] 0.067 | [5] 0.003

MRPS16 (UniProt Q9Y3D3)
inactive: [1] -0.006 | [2] -0.033 | [3] -0.009 | [4] 0.014 | [5] -0.074

MRPS24 (UniProt Q96EL2)
inactive: [1] -0.016 | [2] -0.026 | [3] -0.026 | [4] 0.148 | [5] 0.037

MYADM (UniProt Q96S97)
inactive: [1] -0.055 | [2] -0.064 | [3] 0.059 | [4] -0.07 | [5] -0.091

MTCH2 (UniProt Q9Y6C9)
inactive: [1] 0.041 | [2] 0.03 | [3] 0.11 | [4] 0.003 | [5] -0.004

MTA2 (UniProt O94776)
inactive: [1] -0.026 | [2] 0.031 | [3] 0.027 | [4] 0.032 | [5] -0.002

MYH11 isoform 2 (UniProt P35749)
inactive: [1] 0.011 | [2] 0.024 | [3] -0.071 | [4] -0.026 | [5] -0.036

MTMR6 (UniProt Q9Y217)
inactive: [1] 0.075 | [2] -0.063 | [3] 0.073 | [4] -0.008 | [5] -0.095

MTRR isoform 1 (UniProt Q9UBK8)
inactive: [1] -0.04 | [2] 0.064 | [3] 0.112 | [4] 0.038 | [5] -0.032

MYH9 (UniProt P35579)
inactive: [1] -0.027 | [2] 0.04 | [3] -0.012 | [4] -0.022 | [5] -0.038

MTA1 (UniProt Q13330)
inactive: [1] 0 | [2] 0.007 | [3] 0.084 | [4] 0.036 | [5] 0.001

MRPS33 (UniProt Q9Y291)
inactive: [1] 0.005 | [2] -0.057 | [3] -0.114 | [4] 0.098 | [5] -0.002

MUCL1 (UniProt Q96DR8)
inactive: [1] -0.049 | [2] 0.137 | [3] -0.057 | [4] -0.33 | [5] -0.007

MSI1 (UniProt O43347)
inactive: [1] -0.008 | [2] -0.108 | [3] -0.072 | [4] 0.166 | [5] -0.03

MT-ND6 (UniProt P03923)
inactive: [1] -0.139 | [2] -0.098 | [3] -0.039 | [4] 0.074 | [5] 0.076

MTMR2 (UniProt Q13614)
inactive: [1] -0.019 | [2] 0.168 | [3] 0.101 | [4] 0.006 | [5] -0.038

MSTO1 (UniProt Q9BUK6)
inactive: [1] -0.041 | [2] 0.046 | [3] 0.002 | [4] -0.005 | [5] -0.071

MTG1 (UniProt Q9BT17)
inactive: [1] 0.051 | [2] -0.03 | [3] -0.12 | [4] -0.025 | [5] -0.04

MTHFR isoform 2 (UniProt P42898)
inactive: [1] -0.004 | [2] 0.06 | [3] 0.078 | [4] -0.02 | [5] -0.085

MTPN (UniProt P58546)
inactive: [1] -0.028 | [2] 0.128 | [3] 0.032 | [4] -0.132 | [5] -0.071

MTCH1 (UniProt Q9NZJ7)
inactive: [1] 0.04 | [2] 0.001 | [3] 0.009 | [4] -0.025 | [5] -0.057

MTFR1 (UniProt Q15390)
inactive: [1] 0.017 | [2] 0.151 | [3] 0.138 | [4] -0.072 | [5] -0.093

MRPS15 (UniProt P82914)
inactive: [1] -0.035 | [2] 0.077 | [3] -0.056 | [4] 0.066 | [5] -0.097

MRPS21 (UniProt P82921)
inactive: [1] -0.238 | [2] 0.032 | [3] 0.013 | [4] 0.116 | [5] -0.016

MTHFSD isoform 3 (UniProt Q2M296)
inactive: [1] 0.076 | [2] -0.073 | [3] -0.07 | [4] 0.059 | [5] 0.081

MYH16 (UniProt Q9H6N6)
inactive: [1] -0.164 | [2] -0.042 | [3] -0.142 | [4] 0.069 | [5] -0.034

MTM1 (UniProt Q13496)
inactive: [1] 0.028 | [2] 0 | [3] -0.026 | [4] -0.055 | [5] -0.021

MYLK (UniProt Q15746)
inactive: [1] -0.08 | [2] -0.053 | [3] 0.096 | [4] 0.118 | [5] -0.21

MRPS26 (UniProt Q9BYN8)
inactive: [1] -0.075 | [2] 0.061 | [3] -0.012 | [4] -0.009 | [5] 0.013

MYL6 isoform 2 (UniProt P60660)
inactive: [1] 0.024 | [2] 0.026 | [3] 0.025 | [4] -0.047 | [5] 0.026

MTHFD1, A0A384N5Y3
inactive: [1] -0.063 | [2] 0.138 | [3] -0.022 | [4] -0.002 | [5] -0.113

MYCBP (UniProt Q99417)
inactive: [1] 0.018 | [2] 0.035 | [3] 0.046 | [4] -0.009 | [5] 0.035

MYL6B (UniProt P14649)
inactive: [1] -0.012 | [2] 0 | [3] 0.059 | [4] -0.022 | [5] 0.032

MRS2 (UniProt Q9HD23)
inactive: [1] 0.023 | [2] -0.019 | [3] -0.019 | [4] 0.004 | [5] 0.005

MRPS34 (UniProt P82930)
inactive: [1] 0.096 | [2] -0.023 | [3] 0.004 | [4] 0.053 | [5] -0.056

Reprinted at random: 3 records from the list
MTHFD1, A0A384N5Y3
inactive: [1] -0.063 | [2] 0.138 | [3] -0.022 | [4] -0.002 | [5] -0.113

MYL6 isoform 2 (UniProt P60660)
inactive: [1] 0.024 | [2] 0.026 | [3] 0.025 | [4] -0.047 | [5] 0.026

MRPS34 (UniProt P82930)
inactive: [1] 0.096 | [2] -0.023 | [3] 0.004 | [4] 0.053 | [5] -0.056

(further entries)

MYH10 isoform 3 (UniProt P35580)
inactive: [1] -0.003 | [2] 0.043 | [3] 0.056 | [4] -0.023 | [5] -0.013

MTHFD1L (UniProt Q6UB35)
inactive: [1] -0.032 | [2] 0.06 | [3] 0.081 | [4] -0.004 | [5] -0.036

MTPAP (UniProt Q9NVV4)
inactive: [1] -0.007 | [2] -0.2 | [3] -0.119 | [4] 0.086 | [5] 0.025

MRPS2 (UniProt Q9Y399)
inactive: [1] -0.084 | [2] 0.147 | [3] -0.042 | [4] 0.079 | [5] 0.003

MRPS25 (UniProt P82663)
inactive: [1] -0.002 | [2] -0.05 | [3] -0.067 | [4] 0.059 | [5] 0.014

MTX2 (UniProt O75431)
inactive: [1] 0.04 | [2] 0.075 | [3] 0.035 | [4] -0.036 | [5] -0.016

MRPS30 (UniProt Q9NP92)
inactive: [1] 0.103 | [2] -0.102 | [3] -0.047 | [4] 0.037 | [5] 0.018
